Measurements reported in the supplement of paper PMC7661543.
± gives the standard deviation of the averaged measurements. The effect of the compound repeats well; differences between the knockouts mostly do not.

Test system: MDA-MB-231
Experiment: relative cell number vs DMSO control (72 h) (% of DMSO); higher = less growth inhibition (more cells)
Experimental: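 QMAP-Seq: a pool of 5 breast cancer cell lines (ZR-75-1, SKBR3, HCC-38, MDA-MB-231, BT-20), each carrying 12 doxycycline-inducible Cas9 sgRNA perturbations (11 knockouts plus non-targeting sgNT), was treated with compounds for 72 h at four 10-fold doses (10 nM-10 uM or 1 nM-1 uM range). Barcodes were amplified and sequenced, and cell number was interpolated from 293T spike-in standard curves. The result is expressed as % of the median of DMSO wells. Two biological replicates.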

CC(C)(C)OC(=O)CN(Cc1ccc(Cl)cc1)Cc1ccc([N+](=O)[O-])s1 [GSK4112]
Details	relative cell number
sgRNA knockout: sgATF3, 10 nM	105.07 ± 0.017
sgRNA knockout: sgATF3, 100 nM	92.7 ± 1.1
sgRNA knockout: sgATF3, 1000 nM	93.6 ± 9.9
sgRNA knockout: sgATF3, 10000 nM	101 ± 10
sgRNA knockout: sgATF4, 10 nM	97.9 ± 17
sgRNA knockout: sgATF4, 100 nM	113 ± 26
sgRNA knockout: sgATF4, 1000 nM	112 ± 12
sgRNA knockout: sgATF4, 10000 nM	110 ± 38
sgRNA knockout: sgATF6, 10 nM	84.9 ± 6.6
sgRNA knockout: sgATF6, 100 nM	118 ± 9
sgRNA knockout: sgATF6, 1000 nM	105 ± 13
sgRNA knockout: sgATF6, 10000 nM	123 ± 6
sgRNA knockout: sgATG7, 10 nM	94.9 ± 15
sgRNA knockout: sgATG7, 100 nM	106 ± 4.9
sgRNA knockout: sgATG7, 1000 nM	96.1 ± 2.5
sgRNA knockout: sgATG7, 10000 nM	96.4 ± 4.5
sgRNA knockout: sgERN1, 10 nM	89.21 ± 0.79
sgRNA knockout: sgERN1, 100 nM	81.7 ± 17
sgRNA knockout: sgERN1, 1000 nM	102 ± 17
sgRNA knockout: sgERN1, 10000 nM	109 ± 29
sgRNA knockout: sgHSF1, 10 nM	101 ± 1.4
sgRNA knockout: sgHSF1, 100 nM	94.3 ± 17
sgRNA knockout: sgHSF1, 1000 nM	92 ± 15
sgRNA knockout: sgHSF1, 10000 nM	108 ± 14
sgRNA knockout: sgHSF2, 10 nM	87.8 ± 3.2
sgRNA knockout: sgHSF2, 100 nM	98.2 ± 16
sgRNA knockout: sgHSF2, 1000 nM	79.3 ± 16
sgRNA knockout: sgHSF2, 10000 nM	107 ± 1.3
sgRNA knockout: sgKEAP1, 10 nM	93.8 ± 12
sgRNA knockout: sgKEAP1, 100 nM	97 ± 3.8
sgRNA knockout: sgKEAP1, 1000 nM	89.8 ± 12
sgRNA knockout: sgKEAP1, 10000 nM	94.8 ± 9.4
sgRNA knockout: sgNFE2L2, 10 nM	105 ± 20
sgRNA knockout: sgNFE2L2, 100 nM	106 ± 4.7
sgRNA knockout: sgNFE2L2, 1000 nM	95.6 ± 25
sgRNA knockout: sgNFE2L2, 10000 nM	111 ± 7.2
sgRNA knockout: sgSLC35F2, 10 nM	75.9 ± 9.6
sgRNA knockout: sgSLC35F2, 100 nM	99.3 ± 3.5
sgRNA knockout: sgSLC35F2, 1000 nM	89.2 ± 43
sgRNA knockout: sgSLC35F2, 10000 nM	96.3 ± 20
sgRNA knockout: sgXBP1, 10 nM	101 ± 15
sgRNA knockout: sgXBP1, 100 nM	99.9 ± 7.8
sgRNA knockout: sgXBP1, 1000 nM	97.7 ± 18
sgRNA knockout: sgXBP1, 10000 nM	118 ± 7

COc1ccc(-c2ccc3c(N4CCOCC4)nc(N4C[C@@H](C)O[C@@H](C)C4)nc3n2)cc1CO
Details	relative cell number
sgRNA knockout: sgATF3, 10 nM	113 ± 24
sgRNA knockout: sgATF3, 100 nM	112 ± 32
sgRNA knockout: sgATF3, 1000 nM	107 ± 6.3
sgRNA knockout: sgATF3, 10000 nM	51.1 ± 8.2
sgRNA knockout: sgATF4, 10 nM	93.3 ± 13
sgRNA knockout: sgATF4, 100 nM	166 ± 73
sgRNA knockout: sgATF4, 1000 nM	124 ± 51
sgRNA knockout: sgATF4, 10000 nM	52.4 ± 1.3
sgRNA knockout: sgATF6, 10 nM	97.7 ± 22
sgRNA knockout: sgATF6, 100 nM	98 ± 15
sgRNA knockout: sgATF6, 1000 nM	80.8 ± 13
sgRNA knockout: sgATF6, 10000 nM	52.8 ± 1.8
sgRNA knockout: sgATG7, 10 nM	100 ± 26
sgRNA knockout: sgATG7, 100 nM	115 ± 1.4
sgRNA knockout: sgATG7, 1000 nM	109 ± 48
sgRNA knockout: sgATG7, 10000 nM	67.4 ± 3.2
sgRNA knockout: sgERN1, 10 nM	92.1 ± 14
sgRNA knockout: sgERN1, 100 nM	127 ± 20
sgRNA knockout: sgERN1, 1000 nM	99.4 ± 42
sgRNA knockout: sgERN1, 10000 nM	56.4 ± 10
sgRNA knockout: sgHSF1, 10 nM	100 ± 34
sgRNA knockout: sgHSF1, 100 nM	142 ± 6.3
sgRNA knockout: sgHSF1, 1000 nM	95.4 ± 32
sgRNA knockout: sgHSF1, 10000 nM	67.2 ± 12
sgRNA knockout: sgHSF2, 10 nM	92 ± 20
sgRNA knockout: sgHSF2, 100 nM	137 ± 8.6
sgRNA knockout: sgHSF2, 1000 nM	112 ± 47
sgRNA knockout: sgHSF2, 10000 nM	58.5 ± 9.4
sgRNA knockout: sgKEAP1, 10 nM	89.7 ± 15
sgRNA knockout: sgKEAP1, 100 nM	117 ± 13
sgRNA knockout: sgKEAP1, 1000 nM	87.5 ± 18
sgRNA knockout: sgKEAP1, 10000 nM	57.1 ± 3.9
sgRNA knockout: sgNFE2L2, 10 nM	108 ± 1.8
sgRNA knockout: sgNFE2L2, 100 nM	138 ± 10
sgRNA knockout: sgNFE2L2, 1000 nM	101 ± 7.9
sgRNA knockout: sgNFE2L2, 10000 nM	50.3 ± 5
sgRNA knockout: sgSLC35F2, 10 nM	72.5 ± 14
sgRNA knockout: sgSLC35F2, 100 nM	136 ± 4.8
sgRNA knockout: sgSLC35F2, 1000 nM	76.2 ± 8.5
sgRNA knockout: sgSLC35F2, 10000 nM	51.9 ± 22
sgRNA knockout: sgXBP1, 10 nM	74.9 ± 9
sgRNA knockout: sgXBP1, 100 nM	129 ± 17
sgRNA knockout: sgXBP1, 1000 nM	104 ± 28
sgRNA knockout: sgXBP1, 10000 nM	68.5 ± 5.1

CC(C)C[C@H](NC(=O)[C@H](Cc1ccccc1)NC(=O)c1cnccn1)B(O)O [Bortezomib]
Details	relative cell number
sgRNA knockout: sgATF3, 1 nM	93.1 ± 16
sgRNA knockout: sgATF3, 10 nM	70.2 ± 5.9
sgRNA knockout: sgATF3, 100 nM	9.53 ± 7.1
sgRNA knockout: sgATF3, 1000 nM	12.1 ± 8.2
sgRNA knockout: sgATF4, 1 nM	62.8 ± 15
sgRNA knockout: sgATF4, 10 nM	51.4 ± 1.6
sgRNA knockout: sgATF4, 100 nM	7.86 ± 0.61
sgRNA knockout: sgATF4, 1000 nM	7.74 ± 2.1
sgRNA knockout: sgATF6, 1 nM	96.2 ± 15
sgRNA knockout: sgATF6, 10 nM	51.9 ± 5.6
sgRNA knockout: sgATF6, 100 nM	9.74 ± 0.2
sgRNA knockout: sgATF6, 1000 nM	8.41 ± 0.84
sgRNA knockout: sgATG7, 1 nM	92.5 ± 2.1
sgRNA knockout: sgATG7, 10 nM	53.7 ± 9.9
sgRNA knockout: sgATG7, 100 nM	6.21 ± 2.4
sgRNA knockout: sgATG7, 1000 nM	9.84 ± 3.1
sgRNA knockout: sgERN1, 1 nM	87 ± 8.6
sgRNA knockout: sgERN1, 10 nM	46.4 ± 5.7
sgRNA knockout: sgERN1, 100 nM	7.8 ± 2.8
sgRNA knockout: sgERN1, 1000 nM	10.8 ± 6.3
sgRNA knockout: sgHSF1, 1 nM	85.216 ± 0.04
sgRNA knockout: sgHSF1, 10 nM	36.6 ± 14
sgRNA knockout: sgHSF1, 100 nM	11.2 ± 7.1
sgRNA knockout: sgHSF1, 1000 nM	12.2 ± 5.3
sgRNA knockout: sgHSF2, 1 nM	91.5 ± 2.9
sgRNA knockout: sgHSF2, 10 nM	49.4 ± 8.4
sgRNA knockout: sgHSF2, 100 nM	7.2 ± 3
sgRNA knockout: sgHSF2, 1000 nM	14.8 ± 5.3
sgRNA knockout: sgKEAP1, 1 nM	84.7 ± 6.6
sgRNA knockout: sgKEAP1, 10 nM	52.2 ± 4.1
sgRNA knockout: sgKEAP1, 100 nM	7.03 ± 0.54
sgRNA knockout: sgKEAP1, 1000 nM	8.25 ± 2
sgRNA knockout: sgNFE2L2, 1 nM	114 ± 11
sgRNA knockout: sgNFE2L2, 10 nM	48.3 ± 4.1
sgRNA knockout: sgNFE2L2, 100 nM	7.52 ± 4
sgRNA knockout: sgNFE2L2, 1000 nM	6.38 ± 0.78
sgRNA knockout: sgSLC35F2, 1 nM	85.3 ± 2.8
sgRNA knockout: sgSLC35F2, 10 nM	62.9 ± 1.8
sgRNA knockout: sgSLC35F2, 100 nM	11.1 ± 5.1
sgRNA knockout: sgSLC35F2, 1000 nM	6.25 ± 3.5
sgRNA knockout: sgXBP1, 1 nM	95.9 ± 4.9
sgRNA knockout: sgXBP1, 10 nM	48 ± 12
sgRNA knockout: sgXBP1, 100 nM	9.56 ± 2
sgRNA knockout: sgXBP1, 1000 nM	10.1 ± 9.1

COc1cc(C(=O)N2CCC(N3CCN(C)CC3)CC2)ccc1Nc1ncc2c(n1)N(C)c1ccccc1C(=O)N2C [LRRK2IN1]
Details	relative cell number
sgRNA knockout: sgATF3, 10 nM	117 ± 5.7
sgRNA knockout: sgATF3, 100 nM	86.4 ± 14
sgRNA knockout: sgATF3, 1000 nM	59 ± 4.8
sgRNA knockout: sgATF3, 10000 nM	21.2 ± 8.7
sgRNA knockout: sgATF4, 10 nM	112 ± 2.5
sgRNA knockout: sgATF4, 100 nM	90.4 ± 18
sgRNA knockout: sgATF4, 1000 nM	61.3 ± 2
sgRNA knockout: sgATF4, 10000 nM	24.4 ± 4.9
sgRNA knockout: sgATF6, 10 nM	91 ± 14
sgRNA knockout: sgATF6, 100 nM	87.5 ± 20
sgRNA knockout: sgATF6, 1000 nM	57.3 ± 7.3
sgRNA knockout: sgATF6, 10000 nM	19.9 ± 4.2
sgRNA knockout: sgATG7, 10 nM	105 ± 1.6
sgRNA knockout: sgATG7, 100 nM	81.3 ± 26
sgRNA knockout: sgATG7, 1000 nM	56.5 ± 11
sgRNA knockout: sgATG7, 10000 nM	21.8 ± 6
sgRNA knockout: sgERN1, 10 nM	107 ± 4.1
sgRNA knockout: sgERN1, 100 nM	90.6 ± 11
sgRNA knockout: sgERN1, 1000 nM	58 ± 4.5
sgRNA knockout: sgERN1, 10000 nM	13.8 ± 1.8
sgRNA knockout: sgHSF1, 10 nM	115 ± 1.5
sgRNA knockout: sgHSF1, 100 nM	72.9 ± 20
sgRNA knockout: sgHSF1, 1000 nM	56.5 ± 27
sgRNA knockout: sgHSF1, 10000 nM	20.5 ± 1.5
sgRNA knockout: sgHSF2, 10 nM	109 ± 0.54
sgRNA knockout: sgHSF2, 100 nM	93.6 ± 8.7
sgRNA knockout: sgHSF2, 1000 nM	50 ± 2.7
sgRNA knockout: sgHSF2, 10000 nM	18.7 ± 4.5
sgRNA knockout: sgKEAP1, 10 nM	111 ± 16
sgRNA knockout: sgKEAP1, 100 nM	88.9 ± 4.6
sgRNA knockout: sgKEAP1, 1000 nM	52 ± 2
sgRNA knockout: sgKEAP1, 10000 nM	17.4 ± 2.1
sgRNA knockout: sgNFE2L2, 10 nM	104 ± 4.8
sgRNA knockout: sgNFE2L2, 100 nM	70.1 ± 5.3
sgRNA knockout: sgNFE2L2, 1000 nM	54.8 ± 2.8
sgRNA knockout: sgNFE2L2, 10000 nM	20.1 ± 5.2
sgRNA knockout: sgSLC35F2, 10 nM	110 ± 44
sgRNA knockout: sgSLC35F2, 100 nM	94.1 ± 17
sgRNA knockout: sgSLC35F2, 1000 nM	69.5 ± 16
sgRNA knockout: sgSLC35F2, 10000 nM	20.31 ± 0.095
sgRNA knockout: sgXBP1, 10 nM	104 ± 35
sgRNA knockout: sgXBP1, 100 nM	89 ± 9.4
sgRNA knockout: sgXBP1, 1000 nM	52.1 ± 12
sgRNA knockout: sgXBP1, 10000 nM	19.9 ± 0.81
